Values from PubChem BioAssay AID652272 (Drosophila RNAi Screening Center, 2013)

- Test: 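Genes whose knock-down decreases or increases Hedgehog reporter output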 (primary screen)
- System: Drosophila clone 8 (Cl8) cells
- Knock-down reagent: long dsRNA against Drosophila genes
- Detection: 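Firefly light from a Hedgehog-responsive ptc promoter reporter and Renilla reference light, both read on a plate reader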
- Direction: firefly Hh reporter signal: higher = more ptc reporter light; Renilla reference signal: higher = more Renilla control light
- Rule for the call: 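Called a hit if the two-replicate mean z-score lies below -2 or above +3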
- Calls: active = hit: reporter lowered or raised; inactive = not a hit
The deposit covers about 21,000 reagents; below is an unselected part of those with a known target gene and a result. Of all reagents, 503 (2.4%) were called active. 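Raw plate light values, not normalised; calls rest on replicate z-scores that were not deposited; hits include reporter decreases as well as increases.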 A plus sign joins genes that one reagent is predicted to hit. The record does not give: the amount of reagent, the time to read-out.

Gene	dsRNA	firefly Hh reporter signal, replicate 1	firefly Hh reporter signal, replicate 2	firefly Hh reporter signal, replicate 3	Renilla reference signal, replicate 1	Renilla reference signal, replicate 2	Call
Spc105R (Spc105-related)	DRSC11663	85185	86912		3562	2869	inactive
CG2224	DRSC15429	1.04e5	1.04e5		4002	3223	inactive
alpha-Spec (alpha Spectrin)	DRSC08704	73723	88672		3553	3504	inactive
CG8072	DRSC10960	55976	56364	59894	5107	3713	inactive
CG32365	DRSC10040	69420	53319		6984	4073	inactive
CG32365	DRSC10041	15105	10728		2042	836	inactive
CG32365	DRSC10977	30838	22083		2696	1622	inactive
CG10710	DRSC09784	46829	36928	40807	3845	2771	inactive
Tsp42Ee (Tetraspanin 42Ee)	DRSC05947	75755	45973		1776	3883	inactive
CG16713	DRSC00477	1.41e5	60929		3506	6749	inactive
Src42A (Src oncogene at 42A)	DRSC04865	64724	74451		2448	2820	inactive
Src42A (Src oncogene at 42A)	DRSC04915	81610	66147		1553	5548	inactive
B-H1 (BarH1)	DRSC19334	1.08e5	3.81e5	1.78e5	3360	3952	inactive
Mst57Da (Male-specific RNA 57Da)	DRSC16744	5.99e5	1.22e5		33177	4125	inactive
Apt1 (Acyl-protein thioesterase 1)	DRSC10348	40643	53120	61312	3748	4297	inactive
CG3368	DRSC15485	97813	73676		2468	2011	inactive
da	DRSC03517	1.43e5	89017		3680	7835	inactive
CG14785	DRSC18604	82045	96938		2022	3168	inactive
CG13148	DRSC06275	92571	91456		2032	5497	inactive
5-HT1B (5-hydroxytryptamine (serotonin) receptor 1B)	DRSC05031	1.51e5	42773		4295	470	inactive
5-HT1B (5-hydroxytryptamine (serotonin) receptor 1B)	DRSC05769	12858	22082		731	1369	active
KP78a + KP78b	DRSC16721	84608	72616		3122	2043	inactive
KP78a + KP78b	DRSC16722	83181	90640		2442	2256	inactive
Myo31DF (Myosin 31DF)	DRSC03376	1.55e5	2.15e5		6166	7543	inactive
grsm (granny smith)	DRSC14165	1.36e5	1.33e5		4928	3172	inactive
grsm (granny smith)	DRSC14843	1.15e5	1.19e5		2562	2965	inactive
CG32643	DRSC18962	5.22e5	1.34e5		25334	2912	inactive
CG11145	DRSC06049	1.13e5	87937		2129	7408	inactive
CG33128	DRSC00294	1.41e5	1.18e5		3443	3360	inactive
CG30053	DRSC07260	80827	77493		1349	3130	active
TwdlP (TweedleP)	DRSC14734	1.26e5	1.36e5		3925	3408	inactive
CG42237	DRSC19891	97780	2.95e5		2345	10269	inactive
RIC-3 (RIC3 acetylcholine receptor chaperone)	DRSC04243	1.35e5	1.09e5		5479	4336	inactive
RIC-3 (RIC3 acetylcholine receptor chaperone)	DRSC04543	1.29e5	61130		3130	4517	inactive
PAN3 (Poly(A) specific ribonuclease subunit PAN3)	DRSC08190	69291	75173		3584	3497	inactive
CG32944	DRSC12138	84261	83619		2976	4592	inactive
CG32944	DRSC12341	70931	97153		2754	5292	inactive
l(3)73Ah (lethal (3) 73Ah)	DRSC11359	66704			4682	2019	inactive
ND-42 (NADH dehydrogenase (ubiquinone) 42 kDa subunit)	DRSC16754	96362	79897		3720	2658	inactive
na (narrow abdomen)	DRSC19639	1.30e5	2.05e5		4903	9352	inactive
CG11035	DRSC14287	1.23e5	99552		4775	3920	inactive
Obp56g (Odorant-binding protein 56g)	DRSC06432	90242	42244		2336	2960	inactive
Nup153 (Nucleoporin 153kD)	DRSC19904	2.87e5	48576	34738	4234	1282	active
Cbp80 (cap binding protein 80)	DRSC18450	1.00e5	76902		2568	2756	inactive
CG31093	DRSC15689	5.09e5	70944		25160	2135	inactive
CG31106	DRSC14655	4.87e5	63709		25085	4979	inactive
l(2)09851 (lethal (2) 09851)	DRSC04858	1.06e5	97024		1981	7552	inactive
GlcT (Glucosylceramide synthase)	DRSC04525	45216	43890		2880	2347	active
CG42811	DRSC15367	5.91e5	99191		30458	3412	inactive
Lrt (Leucine-rich tendon-specific protein)	DRSC06045	1.53e5	93865		5030	5552	inactive
CG14174	DRSC10175	32070	30614	59669	4197	4141	inactive
CG3679	DRSC19346	86021	83781		1408	1156	inactive
CG11141	DRSC06048	1.42e5	90827		5393	2848	inactive
CG16888	DRSC02541	1.09e5	54845		3110	5188	inactive
JMJD6 (Jumonji domain containing 6)	DRSC15787	1.13e5	94074		5290	3643	inactive
CG17564	DRSC02626	73341	58569		1738	4748	inactive
Piezo	DRSC03092	87437	63634		3490	2764	inactive
Piezo	DRSC03391	77916	51351		2385	4112	inactive
hbn (homeobrain)	DRSC04082	32562	37378		920	2455	inactive
hbn (homeobrain)	DRSC04238	1.61e5	6.36e5	1.32e5	3984	35117	inactive
hbn (homeobrain)	DRSC04239	1.08e5	87744		2776	6365	inactive
CG13984	DRSC02316	1.63e5	61364		3756	5481	inactive
Ote (Otefin)	DRSC07498	1.11e5	1.05e5		6131	3829	inactive
RpL5 (Ribosomal protein L5)	DRSC03801	27161	17272		1826	3117	active
Wnt10 (Wnt oncogene analog 10)	DRSC00990	5.67e5	2.23e5		27612	8899	inactive
Wnt10 (Wnt oncogene analog 10)	DRSC02797	1.14e5	59066		2899	5703	inactive
Mpp6 (M-phase phosphoprotein 6)	DRSC03169	70864	44564		2141	4616	inactive
mthl8 (methuselah-like 8)	DRSC08211	91872	71992		3880	2832	inactive
mthl8 (methuselah-like 8)	DRSC08311	99120	49267		3088	4058	inactive
CG7330	DRSC10813	1.45e5			1734	6589	inactive
CG7330	DRSC10814	1.37e5			1665	6401	inactive
CG33655	DRSC03858	1.21e5	1.77e5		3328	8208	inactive
wap (wings apart)	DRSC20626	1.15e5	1.00e5		2803	2549	inactive

As entered above.
CG14785 [DRSC18604], Renilla reference signal, replicate 2 = 3168
CG42237 [DRSC19891], Renilla reference signal, replicate 2 → 10269
Ote (Otefin) [DRSC07498], firefly Hh reporter signal, replicate 1 → 1.11e5
Under “firefly Hh reporter signal, replicate 3”, CG8072 [DRSC10960] shows 59894
For “firefly Hh reporter signal, replicate 1”, RpL5 (Ribosomal protein L5) [DRSC03801] reads 27161
Under “firefly Hh reporter signal, replicate 2”, CG31093 [DRSC15689] has 70944
